Laboratory results published in PubChem BioAssay AID2685 (National Center for Advancing Translational Sciences (NCATS), 2010).
The campaign covered roughly 320,000 compounds. About 2,100 (0.66%) were called active. Inconclusive means that the source gave no clear call. Such entries were picked first, then a sample of the others. Calls come from the whole dose curve; as a rule, active = well fitted inhibition curve with a large enough effect in the signal ratio, with a control signal flat (not every such curve was filed as active); inconclusive = small, poorly fitted or top-dose-only effect, or effect the other way, or a change in a side signal; inactive = flat fitted curve, though single readings scatter; the % refers to the signal ratio. Potencies beside an inconclusive call are fits to weak or partial responses and may not hold up.

Assay: qHTS Assay for Lipid Storage Modulators in Drosophila S3 Cells
Settings: BODIPY lipid droplet fluorescence, 18-24 h, cells fed with added oleic acid; lipid storage change, negative = inhibition: at 46.1 µM (top of the series) unless noted
Procedure, shortened: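 Drosophila S3 cells loaded with oleic acid (400 uM, as added) and compounds at several concentrations; lipid droplets imaged by 488-nm laser-scanning cytometry, 500–530 nm intensity and object ratio to cell channel. Percent activity normalized to 20 uM Triacsin C.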
% is set by controls: 0 for no effect and ±100 for the full control effect; potency is the fitted concentration of half-maximal effect.

Row | SMILES | lipid storage change, negative = inhibition | Potency
1 | Cc1c(C(=O)NCCSc2ccc(Cl)cc2)cccc1[N+](=O)[O-] | inconclusive: -4.77% | –
2 | O=C(NC(=S)Nc1ccccc1C(F)(F)F)c1ccccc1F | inconclusive: -64.8% [at 0.00295 µM] | –
3 | O=C(NCCC1=CCCCC1)C(=O)NCC(c1ccco1)N1CCN(c2ccccc2F)CC1 (centres undefined) | inconclusive: -30.1% | –
4 | O=C1c2cccnc2C(=O)N1Cc1ccc(Cl)cc1 | inconclusive: 19.3% | –
5 | CCOC(=O)C1(CCOc2ccccc2)CCN(Cc2ccc3c(c2)OCCO3)CC1 | – | inconclusive: 8.2 µM [falling, partial curve, poor fit]
6 | COC(=O)c1c(C)nc2c(c(SC)nn2-c2ccccc2)c1N | inconclusive: 245% | –
7 | CC(=O)N1CCC(C(=O)Nc2ccc3c(c2)CCC3)CC1 | inconclusive: 23.2% | –
8 | Cc1cc(S(=O)(=O)N2CCCOC2CNC(=O)C(=O)NCCCN2CCOCC2)ccc1F (centres undefined) | – | inconclusive: 0.82 µM [activator, full curve, poor fit]
9 | COc1ccc(N(CC(=O)NCCSc2ccccn2)S(C)(=O)=O)cc1Cl | inconclusive: 11.1% | –
10 | CC(C)CC(OC(=O)c1nsc(Cl)c1Cl)C(=O)NCc1cccs1 (centres undefined) | inactive | –
11 | CN(CC(=O)Nc1ccc(Cl)c(Cl)c1)C(=O)c1cccc2cccnc12 | – | inconclusive: 10.3 µM [falling, single point]
12 | CC(C)(C)NC(=O)c1cccc(NC(=O)c2ccc(NC(=O)c3ccco3)cc2)c1 | inconclusive: -66.6% | –
13 | O=C(Cc1cccs1)Nc1nncs1 | – | inconclusive: 7.31 µM [falling, partial curve, poor fit]
14 | O=C(CCC(=O)N(CC(=O)NC1CCCCC1)c1ccc(F)cc1)Nc1nccs1 | – | inconclusive: 6.51 µM [falling, single point]
15 | CC(=O)NNc1cc(N2CCOCC2)nc(N2CCOCC2)n1 | inconclusive: 9.87% | –
16 | CCOc1ccc(NC(=S)NC(=O)C2CCCC2)cc1 | inactive | –
17 | O=C1c2ccccc2C(=O)C1c1ccccc1F | inconclusive: 461% | –
18 | CC(=C\c1ccccc1)/C=C1/SC(=S)N(CCC(=O)O)C1=O | inactive | –
19 | COC(=O)c1sc(S(=O)(=O)NCCC(=O)O)c(C(=O)OC)c1C | inconclusive: 36.6% | –
20 | O=C(NCCC1=CCCCC1)C1CCCN(S(=O)(=O)c2cccc3cccnc23)C1 (centres undefined) | inconclusive: -18.1% | –
21 | NC(=O)c1ccc(NC(=O)CS(=O)(=O)c2cn(CC(=O)N3CCCCC3)c3ccccc23)cc1 | inconclusive: -21.1% | –
22 | CN(C)S(=O)(=O)c1ccc(C(=O)OCC(=O)NCc2ccco2)cc1 | inconclusive: -33.8% | –
23 | CCn1c(SCC(=O)Nc2ccc(N(C)C)cc2)nnc1C1CC1 | – | inconclusive: 0.517 µM [falling, partial curve]
24 | CCCNC(=O)COC(=O)c1ccccc1OCC(=O)Nc1ccc(Br)cc1 | inconclusive: 22.6% | –
25 | COc1ccc(C)cc1Nc1nc(-c2ccccc2O)nc2ccccc12 | inconclusive: 20.3% | –
26 | O=C(NCCCCc1ccccc1)C1CC(c2cccc([N+](=O)[O-])c2)=NO1 (centres undefined) | inconclusive: 9.88% | –
27 | CC1CCc2c(sc3ncnc(N4CCOCC4)c23)C1 (centres undefined) | inconclusive: 13.8% | –

Row | SMILES | lipid storage change, negative = inhibition | Potency
28 | CCN(CC(=O)Nc1ccc(NC(C)=O)cc1)C(=O)c1ccccc1Sc1ccccc1C#N | inconclusive: 28.2% | –
29 | CCOC(=O)C1CCN(S(=O)(=O)c2ccc3c(c2)CC(=O)N3)CC1 | – | inconclusive: 29.1 µM [falling, single point]
30 | O=C(NCc1ccccc1CN1CCCC1)c1cccc(S(=O)(=O)N2CCOCC2)c1 | inconclusive: 2.57% | –
31 | CCOC(=O)C1CCCN(Cc2nc(CC3CC3)no2)C1 (centres undefined) | – | inconclusive: 14.6 µM [activator, single point]
32 | Cc1cc(OCC(=O)NC2CC2)c2c(C)c(C)c(=O)oc2c1 | inconclusive: -37% | –
33 | CCn1cc([N+](=O)[O-])c(C(=O)N2CCN(C(=O)c3ccco3)CC2)n1 | inconclusive: -15% | –
34 | CC(=O)C(Cl)C(=O)Nc1ccccc1 (centres undefined) | inconclusive: -31.5% | –
35 | CC(=O)c1cccc(NS(=O)(=O)c2csc(C(N)=O)c2)c1 | inconclusive: -24.6% | –
36 | NC(=O)c1ccsc1NC(=O)C1CCN(S(=O)(=O)c2cccs2)CC1 | inconclusive | –
37 | CCn1c(Cc2cccs2)nnc1SCC(=O)NC(C)(C)C | inconclusive: 17.8% | –
38 | CN(C(=O)CSc1nc(-c2ccccc2)cn1N)C(c1ccccc1)c1ccccc1 | inconclusive: 11.7% | –
39 | Cc1ccc(S(=O)(=O)NCCc2nc3ccccc3[nH]2)cc1 | – | inconclusive: 6.51 µM [activator, single point]
40 | Cc1noc(C(=O)N(C)c2ccccc2)c1Cl | inconclusive: 366% | –
41 | COc1cnc(-c2ccccc2)nc1OC | inconclusive: -38.2% | –
42 | COc1ccc(N2CCN(CC(=O)N3N=CCC3c3ccccc3)CC2)cc1 (centres undefined) | inconclusive: 221% | –
43 | COc1ccc(N(C)S(=O)(=O)c2cccc(C(=O)N3CCN(S(=O)(=O)c4ccc(C)cc4)CC3)c2)cc1 | inconclusive: -38% | –
44 | Cc1ccc(NC(=O)CCSc2nnc3ccccn23)cc1 | inconclusive: -26.3% | –
45 | COc1ccccc1N(C)S(=O)(=O)c1ccc(C(=O)NC2CCCCC2)cc1 | – | inconclusive: 0.0058 µM [falling, full curve, poor fit]
46 | CNC(=O)C(=O)NCCN1CCN(S(=O)(=O)c2ccc3ccccc3c2)CC1 | – | inconclusive: 29.1 µM [activator, partial curve]
47 | Cc1cc(C(=O)NCc2nc(-c3ccccc3)no2)ccc1[N+](=O)[O-] | inconclusive: 18.7% | –
48 | NC(=O)C1CCCN(S(=O)(=O)c2ccccc2)C1 (centres undefined) | – | inconclusive: 0.58 µM [falling, full curve, poor fit]
49 | O=C(CC1CCCCC1)NCCCN1CCOCC1 | – | inconclusive: 0.461 µM [activator, partial curve, poor fit]
50 | CN(C)CCNC(=O)c1ccccc1-c1cc2ccccc2c(=O)o1 | inconclusive: 35.9% | –
51 | CCc1ccccc1NC(=O)c1cnc2n(c1=O)CCS2 | inactive | –
52 | CCc1cccc(C)c1NC(=O)CSc1nc2ccncc2[nH]1 | inconclusive: 104% | –
53 | CC(C)C(=O)Nc1nc2cc3c(cc2s1)OCCO3 | inconclusive: 16.9% | –
54 | O=C1Nc2cc(C(=O)N3CCOCC3)ccc2S/C1=C\c1ccccc1 | – | inconclusive: 29.1 µM [falling, single point]

Row | SMILES | lipid storage change, negative = inhibition | Potency
55 | COc1cc(OC)cc(C(=O)NNC(=O)C2CSC3(C)CCC(=O)N23)c1 (centres undefined) | inconclusive: -0.527% | –
56 | O=C1c2ccccc2C(=O)N1Cc1nc2ccccc2c(=O)n1CCCN1CCOCC1 | – | inconclusive: 13 µM [activator, partial curve]
57 | COc1cc(-c2noc(C)c2/C=C/c2ccc(N)cc2)cc(OC)c1OC | inconclusive: 275% | –
58 | COc1ccc(N2C(=NC(=O)C3CCCCC3)SC3CS(=O)(=O)CC32)c(OC)c1 (centres undefined) | inconclusive: 33.1% | –
59 | c1ccc(-c2noc(-c3ccno3)n2)nc1 | inconclusive: -14% | –
60 | Cc1c(Br)c(O)c(Br)c2sc(=O)oc12 | – | inconclusive: 29.1 µM [cytotoxic, partial curve]
61 | COc1ccc(NC(=O)c2nn(C34CC5CC(CC(C5)C3)C4)cc2[N+](=O)[O-])cc1 | – | inconclusive: 0.0046 µM [falling, full curve, poor fit]
62 | CCOC(=O)N1CCC(NC(=O)CS(=O)Cc2nc(-c3ccc(C)cc3)oc2C)CC1 (centres undefined) | – | inconclusive: 6.51 µM [falling, single point]
63 | CNS(=O)(=O)c1cccc(C(=O)OCC(=O)c2cc(C)n(-c3ccc4c(c3)OCO4)c2C)c1 | – | inconclusive: 6.51 µM [falling, single point]
64 | O=C(O)CCn1c(C2CCCCC2)nc2ccccc21 | – | inconclusive: 0.326 µM [falling, full curve]
65 | CCOc1ccc(C(=O)Nc2ccc(C(=O)N3CCOCC3)cc2)c(OCC)c1 | – | inconclusive: 0.146 µM [falling, full curve, poor fit]
66 | CCCP(=O)(CC(=O)N(CC)CC)c1ccccc1 (centres undefined) | inconclusive: 9.72% | –
67 | COCCn1c(-c2ccc(Br)cc2)csc1=Nc1cccnc1 | inconclusive: 17.5% | –
68 | O=C(Oc1ccc(N(Cc2cccs2)C2=NS(=O)(=O)c3ccccc32)cc1)c1ccccc1F | inconclusive: -7.82% | –
69 | O=C(CC1C(=O)NCCN1Cc1c(F)cccc1Cl)NCCCn1cccn1 (centres undefined) | inconclusive: 3.9% | –
70 | COc1ccc(CNC(=S)Nc2cc(OC)ccc2OC)cc1 | inconclusive: 8.17% | –
71 | Cc1ccc(-c2cnc(-c3ccccc3C(=O)O)o2)cc1 | inconclusive: 157% | –
72 | c1cc(CSc2nnc(-c3ccc4c(c3)OCO4)o2)ccn1 | inconclusive: 33.9% | –
73 | CN(C)C/C(Cl)=C(\Cl)c1ccccc1 | inconclusive: -8.2% | –
74 | CC(=O)Nc1ccc(S(=O)(=O)Nc2cccc(-c3cn4c(n3)SCC4)c2)cc1 | inconclusive: 6.82% | –
75 | O=C(NCCN1CCOCC1)c1cnn2c(-c3ccccc3)cc(-c3ccccc3)nc12 | inconclusive: -46% | –
76 | O=C(O)/C=C/c1cn(-c2ccccc2)nc1-c1ccccc1 | – | inconclusive: 1.03 µM [activator, full curve, poor fit]
77 | O=C(c1ccco1)N1CCCC(N2CCN(c3ccccc3F)CC2)C1 (centres undefined) | inconclusive: 28.5% | –
78 | C/C(Cn1cnc([N+](=O)[O-])n1)=N/NC(=O)COc1c(Cl)cc(Cl)cc1Cl | inconclusive: 77.2% | –
79 | CC1CCN(c2c(NCC3CCC(C(=O)N4CCc5ccccc5C4)CC3)c(=O)c2=O)CC1 (centres undefined) | inconclusive: -0.289% | –

3 structures from above, arranged by number of heavy atoms, rising:
Row | SMILES | lipid storage change, negative = inhibition | Potency
66 | CCCP(=O)(CC(=O)N(CC)CC)c1ccccc1 (centres undefined) | inconclusive: 9.72% | –
72 | c1cc(CSc2nnc(-c3ccc4c(c3)OCO4)o2)ccn1 | inconclusive: 33.9% | –
63 | CNS(=O)(=O)c1cccc(C(=O)OCC(=O)c2cc(C)n(-c3ccc4c(c3)OCO4)c2C)c1 | – | inconclusive: 6.51 µM [falling, single point]
